In patent US20240335372A1, “Sustained-Release Vaginal Films” (priority 2021, published 2024):
Some entries share one result that the patent states for a list of compounds.

Experiment: In vitro drug release of APIs from the extended-release polymer matrix film (Eudragit with PLGA)
Assay type: physicochemical
Details: hydrophilic drug in PLGA/Eudragit film formulation, FIG. 3
Description: An initial screening study was conducted to identify suitable polymers for this application.
Based on visual disintegration it was identified that only the combination of PLGA and Eudragit polymers was successful in extending the disintegration time (FIG. 2). […] This burst release could be attributed to the hydrophilic nature of the drug.

CC(C)OC(=O)[C@H](C)N[P@](=O)(OC[C@H]1O[C@@H](n2ccc(=O)[nH]c2=O)[C@](C)(F)[C@@H]1O)Oc1ccccc1 [SBV, Sofosbuvir]
burst release time: ≤ 60 min
